From the supplement of paper PMC10331698
± gives the standard deviation of the averaged measurements. Most values lie at the level of the controls, where differences are scatter.

Columns and labels:
Assay in all cases: level (log10 ratio to DMSO vehicle control); higher = higher biomarker level / cell amount than vehicle control
[1] = compound: CCOC(=O)CC(=O)C(F)(F)C(F)(F)F [Ethyl pentafluoropropionyl acetate]; details: 2200 nM; in DMSO
Method: (§1)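 BioMAP Diversity Plus panel of 12 human primary cell co-culture systems (3C, 4H, LPS, SAg, BT, BF4T, BE3C, CASM3C, HDF3CGF, KF3CT, MyoF, Mphg). Compounds were added 1 h before stimulation and left for 24 h (MyoF 48 h; BT 72 h for soluble read-outs or 6 d for IgG). Biomarkers were read by ELISA, cytotoxicity by SRB, PBMC viability and proliferation by Alamar Blue. Each well value was divided by the mean of 8 DMSO control wells on the same plate and log10 transformed; duplicate blinded samples were tested at 4 concentrations.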

[2] = compound: O=C(CC(=O)C(F)(F)C(F)(F)C(F)(F)F)c1cccs1 [(Perfluorobutyryl)-2-thenoylmethane]; details: 2200 nM; in DMSO
Method: as §1

[3] = compound: FC(F)(F)C(F)(F)C(F)(F)C(F)(F)C(F)(F)C(F)(F)C(F)(F)C(F)(F)CCS [2-(Perfluorooctyl)ethanthiol]; details: in DMSO
Method: as §1

[4] = compound: O=C(O)C(F)(F)OC(F)(F)C(F)(F)OC(F)(F)C(F)(F)OC(F)(F)C(F)(F)C(F)(F)C(F)(F)F [Perfluoro-3,6,9-trioxatridecanoic acid]; details: 2200 nM; in DMSO
Method: as §1

[5] = compound: N=C(N)C(F)(F)C(F)(F)C(F)(F)C(F)(F)C(F)(F)C(F)(F)C(F)(F)F [Perfluorooctanamidine]; details: in DMSO
Method: as §1

[6] = compound: O=C(O)C(F)(F)C(F)(F)C(F)(F)C(F)(F)C(F)(F)C(F)(F)C(F)(F)C(F)(F)C(F)(F)F [Perfluorodecanoic acid]; details: in DMSO
Method: as §1

[7] = compound: C=CC(=O)OCC(F)(F)C(F)(F)C(F)(F)C(F)(F)C(F)(F)C(F)(F)C(F)(F)C(F)F [1H,1H,9H-Perfluorononyl acrylate]; details: 2200 nM; in DMSO
Method: as §1

[8] = compound: OCC(F)(F)C(F)(F)C(F)(F)C(F)(F)C(F)(F)C(F)(F)C(F)(F)C(F)(F)CO [1H,1H,10H,10H-Perfluorodecane-1,10-diol]; details: 2200 nM; in DMSO
Method: as §1

[9] = compound: O=C(O)CCC(F)(C(F)(F)F)C(F)(F)F [4,4-bis(Trifluoromethyl)-4-fluoropropanoic acid]; details: 2200 nM; in DMSO
Method: as §1

[10] = compound: O=C(O)C(F)(F)C(F)(F)C(F)(F)C(F)(F)C(F)(F)C(F)(F)C(F)(F)C(F)(F)F [Perfluorononanoic acid]; details: 2200 nM; in DMSO
Method: as §1

[11] = compound: O=C(O)C(F)(F)C(F)(F)C(F)(F)C(F)(F)C(F)(F)C(F)(F)C(F)(F)F [Perfluorooctanoic acid]; details: 2200 nM; in DMSO
Method: as §1

[12] = compound: O=C(O)C(F)(F)OC(F)(F)C(F)(F)OC(F)(F)F [Perfluoro-3,6-dioxaheptanoic acid]; details: 2200 nM; in DMSO
Method: as §1

[13] = compound: O=C(O)C(F)(F)C(F)(F)C(F)(F)C(F)(F)C(F)(F)C(F)(F)C(F)(F)F [Ammonium perfluorooctanoate]; details: 2200 nM; in DMSO
Method: as §1

[14] = compound: OCC(F)(F)OC(F)(F)C(F)(F)OC(F)(F)C(F)(F)OC(F)(F)CO [1H,1H,11H,11H-Perfluorotetraethylene glycol]; details: 2200 nM; in DMSO
Method: as §1

| Test System | level (log10) [1] | level (log10) [2] | level (log10) ([3]; 740 nM) | level (log10) ([3]; 2200 nM) | level (log10) [4] | level (log10) ([5]; 2200 nM) | level (log10) ([5]; 6700 nM) | level (log10) ([5]; 20000 nM) | level (log10) ([5]; 60000 nM) | level (log10) ([6]; 2200 nM) | level (log10) ([6]; 6700 nM) | level (log10) ([6]; 20000 nM) | level (log10) [7] | level (log10) [8] | level (log10) [9] | level (log10) [10] | level (log10) [11] | level (log10) [12] | level (log10) [13] | level (log10) [14] |
| --- | --- | --- | --- | --- | --- | --- | --- | --- | --- | --- | --- | --- | --- | --- | --- | --- | --- | --- | --- | --- |
| HDF3CGF:MMP-1 | 0.039 ± 0.031 | -0.0075 ± 0.0035 | 0.015 ± 0.016 | 0.0075 ± 0.011 | -0.009 ± 0.0042 | 0.003 ± 0.0057 | -0.008 ± 0.0099 | 0.012 ± 0.0085 | -0.008 | -0.0105 ± 0.03 | -0.041 ± 0.0028 | -0.174 ± 0.08 | 0.004 ± 0.0028 | -0.005 ± 0.0014 | -0.001 ± 0.0099 | -0.0205 ± 0.039 | -0.0245 ± 0.021 | 0.006 ± 0.0042 | 0.015 ± 0.017 | 0.0235 ± 0.0021 |
| HDF3CGF:CD106/VCAM-1 | -0.0025 ± 0.063 | -0.02 ± 0.0099 | 0.0005 ± 0.005 | 0.006 ± 0.023 | -0.0175 ± 0.029 | -0.037 ± 0.0099 | -0.0215 ± 0.013 | -0.132 ± 0.018 | -0.214 | -0.099 ± 0.073 | -0.0085 ± 0.026 | -0.623 ± 0.057 | -0.057 ± 0.072 | -0.023 ± 0.014 | -0.0395 ± 0.04 | -0.106 ± 0.11 | -0.001 ± 0.021 | -0.0555 ± 0.059 | -0.0335 ± 0.05 | 0.0005 ± 0.021 |
| lMphg:CD69 | 0.0245 ± 0.021 | 0.01 ± 0.013 | -0.014 ± 0.051 | -0.035 ± 0.035 | 0.018 ± 0.048 | 0.005 ± 0.038 | -0.048 ± 0.0028 | -0.052 ± 0.0085 | 0.029 | -0.024 ± 0.042 | -0.013 ± 0.054 | -0.055 ± 0.052 | -0.0195 ± 0.0021 | 0.0255 ± 0.0035 | 0.0235 ± 0.022 | 0.0225 ± 0.0021 | 0.016 ± 0.034 | 0.034 ± 0.031 | -0.027 ± 0.011 | -0.012 ± 0.082 |
| LPS:CD106/VCAM-1 | 0.0075 ± 0.005 | -0.0105 ± 0.016 | -0.0035 ± 0.012 | -0.0015 ± 0.0064 | 0.0235 ± 0.0064 | -0.0145 ± 0.005 | -0.017 ± 0.014 | -0.0365 ± 0.026 | -0.091 | -0.0055 ± 0.0092 | 0.0015 ± 0.0035 | -0.001 ± 0.0014 | -0.0115 ± 0.005 | 0.0005 ± 0.013 | 0.001 ± 0.018 | -0.005 ± 0.028 | 0.003 ± 0.021 | 0.011 ± 0.024 | -0.0065 ± 0.015 | 0.0065 ± 0.026 |
| lMphg:CD62E/E-Selectin | -0.0045 ± 0.026 | -0.011 ± 0.075 | -0.015 ± 0.0071 | -0.005 ± 0.0071 | 0.0195 ± 0.04 | -0.008 ± 0.052 | 0.0065 ± 0.042 | 0.0655 ± 0.015 | 0.049 | -0.0335 ± 0.021 | -0.026 ± 0.0028 | -0.0135 ± 0.011 | -0.0125 ± 0.00071 | -0.0125 ± 0.011 | -0.0115 ± 0.013 | 0.011 ± 0.035 | 0.026 ± 0.0099 | 0.018 ± 0.02 | -0.031 ± 0.027 | -0.0365 ± 0.018 |
| lMphg:CCL2/MCP-1 | 0.005 ± 0.0099 | 0.0125 ± 0.026 | 0.0055 ± 0.036 | 0.0095 ± 0.039 | 0 ± 0.0042 | 0.0005 ± 0.035 | -0.03 ± 0.016 | -0.006 ± 0.0085 | 0.021 | -0.0105 ± 0.036 | 0.001 ± 0.0042 | 0.0095 ± 0.023 | 0.0175 ± 0.015 | 0.009 ± 0.057 | -0.0005 ± 0.021 | -0.0145 ± 0.016 | 0.0155 ± 0.025 | 0.0085 ± 0.022 | -0.0015 ± 0.013 | -0.0115 ± 0.011 |
| BE3C:HLA-DR | -0.011 ± 0.025 | -0.0035 ± 0.012 | 0.001 ± 0.0085 | -0.0055 ± 0.0078 | -0.019 ± 0.011 | 0.01 ± 0.021 | -0.0015 ± 0.018 | -0.003 ± 0.021 | -0.01 | -0.015 | -0.0525 ± 0.022 | -0.842 ± 0.04 | -0.009 ± 0.017 | -0.0095 ± 0.016 | 0 ± 0.0057 | -0.036 ± 0.027 | 0.009 ± 0.044 | -0.0125 ± 0.057 | -0.016 ± 0.0042 | -0.0035 ± 0.019 |
| HDF3CGF:CXCL10/IP-10 | -0.0155 ± 0.0078 | 0.0095 ± 0.0078 | -0.0105 ± 0.036 | -0.0215 ± 0.029 | -0.0215 ± 0.012 | 0.012 ± 0.0042 | 0.024 ± 0.014 | -0.004 ± 0.034 | -0.122 | -0.0475 ± 0.025 | -0.0745 ± 0.015 | -0.427 ± 0.019 | 0.005 ± 0.0042 | 0.003 ± 0.016 | -0.019 ± 0.044 | -0.003 ± 0.013 | 0.015 ± 0.018 | 0.0115 ± 0.018 | -0.016 ± 0.0071 | -0.0115 ± 0.0078 |
| KF3CT:SRB | 0.006 ± 0.0057 | 0.001 ± 0.0042 | 0.0025 ± 0.0092 | 0.0005 ± 0.0078 | -0.0025 ± 0.016 | 0.0055 ± 0.019 | -0.001 ± 0.0014 | -0.004 ± 0.0014 | 0.027 | 0.0105 ± 0.011 | -0.0325 ± 0.005 | -0.036 ± 0.0085 | 0.009 ± 0.0099 | 0.002 ± 0.016 | 0.004 ± 0.0014 | 0.0025 ± 0.0064 | 0.0075 ± 0.016 | 0.005 ± 0.0057 | 0.0015 ± 0.0064 | 0.007 ± 0.016 |
| CASM3C:IL-6 | 0.01 ± 0.03 | -0.0265 ± 0.044 | 0.046 ± 0.035 | -0.0055 ± 0.032 | -0.025 ± 0.04 | 0.0195 ± 0.11 | -0.046 ± 0.023 | -0.041 ± 0.035 | 0.041 | -0.0255 ± 0.056 | -0.035 ± 0.037 | -0.0375 ± 0.039 | 0.0155 ± 0.064 | 0.009 ± 0.052 | 0.017 ± 0.076 | -0.0305 ± 0.035 | 0.007 ± 0.061 | -0.002 ± 0.013 | 0.009 ± 0.0057 | -0.001 ± 0.042 |
| 3C:SRB | 0.012 ± 0.017 | -0.0025 ± 0.005 | 0 ± 0.017 | 0.0075 ± 0.011 | -0.016 ± 0.0085 | 0.009 ± 0.0042 | 0.008 ± 0.016 | 0.0195 ± 0.019 | -0.054 | 0.012 ± 0.0014 | 0.0095 ± 0.0021 | -0.005 ± 0.0042 | 0.0095 ± 0.00071 | 0.0055 ± 0.023 | -0.0075 ± 0.0064 | 0.016 ± 0.0028 | -0.025 ± 0.0028 | -0.0065 ± 0.016 | -0.0095 ± 0.0035 | 0.0165 ± 0.0035 |
| BE3C:EGFR | -0.027 ± 0.023 | -0.0235 ± 0.0092 | 0.043 ± 0.035 | 0.0305 ± 0.059 | -0.0205 ± 0.03 | 0.012 ± 0.027 | -0.009 ± 0.0014 | -0.013 ± 0.014 | -0.022 | 0.0115 ± 0.0035 | -0.0135 ± 0.05 | -0.149 ± 0.073 | 0.004 ± 0.013 | -0.0135 ± 0.005 | -0.0035 ± 0.025 | -0.0045 ± 0.0021 | -0.005 ± 0.021 | 0 ± 0.045 | 0.001 ± 0.0014 | 0.0005 ± 0.005 |

Part of the list above with just level (log10) [4], level (log10) [14] and level (log10) [12]:
Test System	level (log10) [4]	level (log10) [14]	level (log10) [12]
HDF3CGF:CXCL10/IP-10	-0.0215 ± 0.012	-0.0115 ± 0.0078	0.0115 ± 0.018
KF3CT:SRB	-0.0025 ± 0.016	0.007 ± 0.016	0.005 ± 0.0057
